From patent publication US20110245242A1, “Heterocyclically Substituted Anilinopyrimides” (Bayer CropScience AG, priority 2008, published 2011)
Some of these results come from one statement about several compounds together.

Key:
Venturia inaequalis = assay: Venturia test (apple)/protective; format: in vivo; conditions: active compound concentration of 100 ppm, protective, evaluation 10 days after the inoculation
Alternaria solani = assay: Alternaria test (tomato)/protective; format: in vivo; conditions: active compound concentration of 500 ppm, protective, evaluation 7 days after the inoculation
Puccinia triticina = Puccinia triticina test (wheat)/protective; format: in vivo; conditions: active compound concentration of 500 ppm, protective, evaluation 8 days after the inoculation
Rhizoctonia solani = assay: Rhizoctonia test (rice)/protective; format: in vivo; conditions: active compound concentration of 250 ppm, protective, evaluation 4 days after the inoculation
Cochliobolus miyabeanus = assay: Cochliobolus test (rice)/protective; conditions: active compound concentration of 250 ppm, protective, evaluation 4 days after the inoculation
Botrytis cinerea = assay: Botrytis test (bean)/protective; format: in vivo; conditions: active compound concentration of 250 ppm, protective, evaluated 2 days after the inoculation
Sphaerotheca fuliginea = assay: Sphaerotheca test (cucumber)/protective; format: in vivo; conditions: active compound concentration of 500 ppm, protective, evaluation 7 days after the inoculation

SMILES | efficacy (Venturia inaequalis) | efficacy (Alternaria solani) | efficacy (Puccinia triticina) | efficacy (Rhizoctonia solani) | efficacy (Cochliobolus miyabeanus) | efficacy (Botrytis cinerea) | efficacy (Sphaerotheca fuliginea)
S=C1CCCN1c1cccc(Nc2ncc(Cl)c(NC3CC3)n2)c1 [Example 33, 1-(3-{[5-Chloro-4-(cyclopropylamino)pyrimidin-2-yl]amino}phenyl)pyrrolidine-2-thione] | ≥ 70% | ≥ 70% | ≥ 70% | ≥ 80% | ≥ 80% |  | 
CC(C)[C@H]1COC(=O)N1c1cccc(Nc2ncc(Cl)c(NC3CCC3)n2)c1 [Example 100] | ≥ 70% | ≥ 70% | ≥ 70% |  |  | ≥ 70% | ≥ 70%
C[C@@H]1COC(=O)N1c1cccc(Nc2ncc(Br)c(NC3CC3)n2)c1 [Example 104] | ≥ 70% | ≥ 70% | ≥ 70% |  |  | ≥ 70% | ≥ 70%
CC1(C)CC(=O)N(c2cccc(Nc3ncc(Br)c(NCC4CC4)n3)c2)C1=O [Example 132] | ≥ 70% | ≥ 70% | ≥ 70% |  |  | ≥ 70% | ≥ 70%
CC(C)Nc1nc(Nc2ccc(N3C(=O)OCC3C)cc2)ncc1Cl (centres unmarked) [Example 142] |  | ≥ 70% |  | ≥ 80% |  |  | 
CC1COC(=O)N1c1cccc(Nc2ncc(Cl)c(NCC(F)F)n2)c1 (centres unmarked) [Example 155] |  | ≥ 70% |  | ≥ 80% |  |  | ≥ 70%
CC1CCN(c2cccc(Nc3ncc(Cl)c(N(C)C4CC4)n3)c2)C1=O (centres unmarked) [Example 186] | ≥ 70% | ≥ 70% |  |  |  | ≥ 70% | ≥ 70%
CCOC(=O)[C@@H]1CCC(=O)N1c1cccc(Nc2ncc(Cl)c(NC3CC3)n2)c1 [Example 190, Ethyl 1-(3-{[5-chloro-4-(cyclopropylamino)pyrimidin-2-yl]amino}phenyl)-5-oxo-L-prolinate] | ≥ 70% | ≥ 70% | ≥ 70% | ≥ 80% |  |  | 
CCC1CC(C)C(=O)N1c1cccc(Nc2ncc(Cl)c(NC3CC3)n2)c1 (centres unmarked) [Example 206, 1-(3-{[5-Chloro-4-(cyclopropylamino)pyrimidin-2-yl]amino}phenyl)-5-ethyl-3-methylpyrrolidin-2-one] | ≥ 70% | ≥ 70% | ≥ 70% | ≥ 80% |  | ≥ 70% | 
CCC1CC(C)C(=O)N1c1cccc(Nc2ncc(Br)c(NC(C)C)n2)c1 (centres unmarked) [Example 210] | ≥ 70% | ≥ 70% |  |  |  | ≥ 70% | ≥ 70%
CCC1CC(C)C(=O)N1c1cccc(Nc2ncc(Br)c(NC3CCC3)n2)c1 (centres unmarked) [Example 211] | ≥ 70% | ≥ 70% |  |  |  | ≥ 70% | ≥ 70%
CC1CC(Nc2nc(Nc3cccc(N4C(=O)CC(C)(C)C4=O)c3)ncc2Cl)C1 (centres unmarked) [Example 259] | ≥ 70% | ≥ 70% |  |  |  | ≥ 70% | ≥ 70%
O=C1CCC(C(F)(F)F)N1c1cccc(Nc2ncc(Cl)c(NC3CC3)n2)c1 (centres unmarked) [Example 260] | ≥ 70% | ≥ 70% | ≥ 70% |  |  | ≥ 70% | ≥ 70%
O=C1N(CCCl)CCN1c1cccc(Nc2ncc(Cl)c(NC3CC3)n2)c1 [Example 286] |  | ≥ 70% | ≥ 70% | ≥ 80% |  |  | ≥ 70%
CC1CC(C)N(c2cccc(Nc3ncc(C(F)(F)F)c(NC4CCC4)n3)c2)C1=O (centres unmarked) [Example 289] | ≥ 70% | ≥ 70% |  |  |  | ≥ 70% | ≥ 70%
CCC1CCC(=O)N1c1cccc(Nc2ncc(Cl)c(NC3CC3)n2)c1 (centres unmarked) [Example 294] | ≥ 70% | ≥ 70% | ≥ 70% |  |  | ≥ 70% | ≥ 70%
CC1CC(Nc2nc(Nc3cccc(N4C(=O)CCC4C)c3)ncc2Br)C1 (centres unmarked) [Example 317] | ≥ 70% | ≥ 70% | ≥ 70% |  |  | ≥ 70% | ≥ 70%
CC1CC(C)N(c2cccc(Nc3ncc(Cl)c(NCC(F)F)n3)c2)C1=O (centres unmarked) [Example 331] | ≥ 70% | ≥ 70% |  |  |  | ≥ 70% | ≥ 70%
